Measured values taken from paper PMC12189040.
These are yes or no findings as the source states them, for the method shown. Binding seen in cells or lysates may run through a third protein. Some entries that bind do so weakly or less than the wild type. Tags and fused reporters may be left off the sequences shown. One block for each molecule: values may come before it.

Amino acid sequences for entries named in this document (tags omitted).
UniProt P42230: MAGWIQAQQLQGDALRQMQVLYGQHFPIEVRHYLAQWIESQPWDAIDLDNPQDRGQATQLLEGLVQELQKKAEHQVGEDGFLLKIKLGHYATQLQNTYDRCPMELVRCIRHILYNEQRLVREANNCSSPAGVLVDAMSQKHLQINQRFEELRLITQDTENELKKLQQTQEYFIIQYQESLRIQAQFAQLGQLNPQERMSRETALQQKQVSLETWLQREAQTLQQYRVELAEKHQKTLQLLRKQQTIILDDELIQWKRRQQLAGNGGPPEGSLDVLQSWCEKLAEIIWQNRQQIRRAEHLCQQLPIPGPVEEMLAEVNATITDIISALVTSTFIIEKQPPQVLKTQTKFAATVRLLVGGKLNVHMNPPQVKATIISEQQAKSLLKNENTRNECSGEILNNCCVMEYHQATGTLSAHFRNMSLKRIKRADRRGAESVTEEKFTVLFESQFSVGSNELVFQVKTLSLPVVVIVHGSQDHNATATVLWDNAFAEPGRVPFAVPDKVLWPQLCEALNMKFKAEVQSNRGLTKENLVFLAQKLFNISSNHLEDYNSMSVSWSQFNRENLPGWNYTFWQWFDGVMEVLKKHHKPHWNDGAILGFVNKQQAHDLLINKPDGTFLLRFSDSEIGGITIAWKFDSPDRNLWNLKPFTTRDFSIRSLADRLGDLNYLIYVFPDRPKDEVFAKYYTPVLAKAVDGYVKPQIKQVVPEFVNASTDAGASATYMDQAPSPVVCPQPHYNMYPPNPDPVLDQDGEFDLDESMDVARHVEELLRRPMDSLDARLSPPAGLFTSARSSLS

Legend:
[1] = molecular target: T1, Hyaluronan-binding protein involved in hyaluronan (HYBID), Flag-tagged (UniProt Q8BI06); assay: co-IP; HEK293-T cell lysates incubated with IP-grade antibodies for 1 h, magnetic protein A/G beads, Western blot; IP Flag-HYBID with IB HA-STAT5A, and IP HA-STAT5A with IB Flag-HYBID
T1 sequence: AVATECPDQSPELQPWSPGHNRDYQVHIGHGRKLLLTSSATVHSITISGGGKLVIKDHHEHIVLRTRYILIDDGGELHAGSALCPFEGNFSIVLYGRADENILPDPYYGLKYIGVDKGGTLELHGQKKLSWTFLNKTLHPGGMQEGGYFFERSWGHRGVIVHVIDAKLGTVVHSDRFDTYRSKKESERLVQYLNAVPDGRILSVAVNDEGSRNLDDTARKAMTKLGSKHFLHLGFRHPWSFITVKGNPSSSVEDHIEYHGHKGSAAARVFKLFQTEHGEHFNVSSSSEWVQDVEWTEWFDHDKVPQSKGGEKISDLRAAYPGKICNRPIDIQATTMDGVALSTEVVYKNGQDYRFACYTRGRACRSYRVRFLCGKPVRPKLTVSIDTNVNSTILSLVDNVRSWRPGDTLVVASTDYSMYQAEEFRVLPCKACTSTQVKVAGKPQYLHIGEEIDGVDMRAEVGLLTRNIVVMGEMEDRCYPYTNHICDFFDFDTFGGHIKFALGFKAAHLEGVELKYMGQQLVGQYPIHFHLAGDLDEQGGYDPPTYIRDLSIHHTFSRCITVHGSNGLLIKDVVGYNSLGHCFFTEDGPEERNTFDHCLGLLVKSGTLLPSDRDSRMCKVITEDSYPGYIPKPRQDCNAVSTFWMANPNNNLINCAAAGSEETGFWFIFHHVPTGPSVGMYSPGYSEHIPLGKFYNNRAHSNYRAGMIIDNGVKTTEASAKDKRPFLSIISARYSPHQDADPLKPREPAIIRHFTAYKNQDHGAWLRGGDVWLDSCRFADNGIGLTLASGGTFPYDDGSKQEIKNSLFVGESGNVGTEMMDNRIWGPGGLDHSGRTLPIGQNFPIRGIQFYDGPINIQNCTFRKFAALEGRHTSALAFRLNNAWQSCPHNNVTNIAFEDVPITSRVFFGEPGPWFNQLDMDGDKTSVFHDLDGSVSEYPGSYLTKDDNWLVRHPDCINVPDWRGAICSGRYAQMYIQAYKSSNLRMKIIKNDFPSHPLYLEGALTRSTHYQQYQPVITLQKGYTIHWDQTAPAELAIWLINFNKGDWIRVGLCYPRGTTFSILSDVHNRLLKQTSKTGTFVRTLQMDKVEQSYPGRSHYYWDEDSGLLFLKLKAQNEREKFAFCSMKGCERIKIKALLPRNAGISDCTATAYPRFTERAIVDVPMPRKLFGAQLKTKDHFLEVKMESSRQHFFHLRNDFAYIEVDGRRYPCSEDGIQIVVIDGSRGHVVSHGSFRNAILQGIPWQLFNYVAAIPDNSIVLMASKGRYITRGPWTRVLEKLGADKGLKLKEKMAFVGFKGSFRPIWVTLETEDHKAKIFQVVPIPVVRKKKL

[2] = molecular target: Signal transducer and activator of transcription 5A (STAT5A), HA-tagged, full length (UniProt P42230); assay: as above

binding [1]: binds
Molecule: Signal transducer and activator of transcription 5A (STAT5A), HA-tagged, full length (from UniProt P42230 1-793)

binding [2]: binds
B1: Hyaluronan-binding protein involved in hyaluronan (HYBID), Flag-tagged (protein, UniProt Q8BI06 31-1361)
chain: T1 sequence
